In BindingDB's records for doi:10.1038/350610a0 (University of Toronto, 1991):

Molecular target: T1, D(4) dopamine receptor (Rattus norvegicus, UniProt P30729)
T1 sequence (P30729 whole entry): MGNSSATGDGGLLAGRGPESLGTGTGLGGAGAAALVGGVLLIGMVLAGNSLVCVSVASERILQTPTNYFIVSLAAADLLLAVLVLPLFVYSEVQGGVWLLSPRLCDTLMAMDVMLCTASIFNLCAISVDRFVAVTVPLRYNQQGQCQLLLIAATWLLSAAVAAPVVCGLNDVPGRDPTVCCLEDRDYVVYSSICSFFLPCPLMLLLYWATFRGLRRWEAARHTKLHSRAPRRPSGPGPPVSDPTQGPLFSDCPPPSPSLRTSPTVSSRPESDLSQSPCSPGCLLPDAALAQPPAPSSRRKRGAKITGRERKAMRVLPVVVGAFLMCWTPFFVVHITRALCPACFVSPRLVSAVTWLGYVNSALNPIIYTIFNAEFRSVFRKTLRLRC

For `CSc1ccc2c(c1)N(CC[C@@H]1CCCCN1C)c1ccccc1S2` [10-[2-(1-Methyl-piperidin-2-yl)-ethyl]-2-methylsulfanyl-10H-phenothiazine (thioridazine)], the Ki was 12 nM.
